From the supplement of paper PMC6078165
± gives the standard deviation of the averaged measurements. Values are relative to the signal before dosing, not to a vehicle control; the signal also falls without drug.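 Labels refer to human fibroblasts, largely primary: uterine (C12385, HUF), lung (H6013), bone (Hs27A), adrenal (HADF), skin (WS1), plus mammary HMF and breast cancer-associated Hs343T. Cancer lines are basal-like or mesenchymal-like triple-negative breast cancer. The paper counts as hits responses shifting over 3x the replicate standard deviation. The tissue of the other fibroblasts is not given here.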

Tested on: MDAMB436
Assay: relative JC-1 red fluorescence (viability) vs pre-drug, coculture with fibroblast (fraction); higher = more viable cancer cells
Experimental: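 JC-1 labelled TNBC cells cocultured 1:1 (1,500 cells each) with CellTrace Violet stained primary or stromal fibroblasts in 384-well plates in FluoroBrite medium, treated with one of 42 anticancer drugs at 0.1, 1, 10 or 100 uM. JC-1 red fluorescence (mitochondrial integrity in cancer cells only) was read by plate reader every 8 h for 72 h. Values are normalised to each well's pre-drug value. The stock of one drug was tenfold lower, so its dose labels may be too high.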

CC(C)C[C@H](NC(=O)[C@H](Cc1ccccc1)NC(=O)c1cnccn1)B(O)O [Bortezomib]
relative JC-1 red fluorescence
Settings | 8 h | 16 h | 24 h | 32 h | 40 h | 48 h | 56 h | 64 h | 72 h
10 µM, coculture fibroblast: C12385 | 0.7944 ± 0.0015 | 0.764 ± 0.0085 | 0.753 ± 0.012 | 0.66 ± 0.021 | 0.616 ± 0.022 | 0.594 ± 0.0093 | 0.571 ± 0.02 | 0.552 ± 0.02 | 0.548 ± 0.022
10 µM, coculture fibroblast: H6013 | 0.823 ± 0.015 | 0.8103 ± 0.0078 | 0.805 ± 0.01 | 0.8146 ± 0.0045 | 0.8253 ± 0.0019 | 0.878 ± 0.017 | 0.867 ± 0.028 | 0.878 ± 0.033 | 0.854 ± 0.046
10 µM, coculture fibroblast: H6019 | 0.762 ± 0.012 | 0.736 ± 0.03 | 0.779 ± 0.06 | 0.768 ± 0.071 | 0.78 ± 0.073 | 0.806 ± 0.08 | 0.815 ± 0.084 | 0.84 ± 0.095 | 0.853 ± 0.093
10 µM, coculture fibroblast: H6076 | 0.65 ± 0.034 | 0.6 ± 0.01 | 0.615 ± 0.0095 | 0.609 ± 0.019 | 0.638 ± 0.027 | 0.647 ± 0.015 | 0.703 ± 0.025 | 0.708 ± 0.019 | 0.729 ± 0.011
10 µM, coculture fibroblast: H6231 | 0.769 ± 0.019 | 0.608 ± 0.025 | 0.67 ± 0.043 | 0.596 ± 0.048 | 0.597 ± 0.056 | 0.57 ± 0.047 | 0.571 ± 0.05 | 0.559 ± 0.044 | 0.555 ± 0.05
10 µM, coculture fibroblast: HADF | 0.777 ± 0.019 | 0.734 ± 0.045 | 0.694 ± 0.073 | 0.648 ± 0.087 | 0.632 ± 0.098 | 0.656 ± 0.1 | 0.602 ± 0.1 | 0.596 ± 0.11 | 0.558 ± 0.11
10 µM, coculture fibroblast: HCFa | 0.803 ± 0.017 | 0.768 ± 0.011 | 0.751 ± 0.0097 | 0.7214 ± 0.0048 | 0.7192 ± 0.00099 | 0.7474 ± 0.0034 | 0.7004 ± 0.0017 | 0.69644 ± 0.00023 | 0.64 ± 0.011
10 µM, coculture fibroblast: HCPF | 0.669 ± 0.019 | 0.629 ± 0.0015 | 0.639 ± 0.011 | 0.5864 ± 0.0013 | 0.573 ± 0.0096 | 0.539 ± 0.0086 | 0.533 ± 0.0086 | 0.522 ± 0.0071 | 0.52 ± 0.0058
10 µM, coculture fibroblast: HHSteC | 0.7905 ± 0.0061 | 0.7782 ± 0.00094 | 0.77 ± 0.012 | 0.737 ± 0.0098 | 0.737 ± 0.015 | 0.77 ± 0.016 | 0.72 ± 0.021 | 0.722 ± 0.029 | 0.678 ± 0.035
10 µM, coculture fibroblast: HMF | 0.668 ± 0.051 | 0.634 ± 0.048 | 0.61 ± 0.035 | 0.569 ± 0.013 | 0.553 ± 0.012 | 0.526 ± 0.033 | 0.539 ± 0.053 | 0.522 ± 0.062 | 0.53 ± 0.073
10 µM, coculture fibroblast: HPFa | 0.955 ± 0.06 | 0.872 ± 0.019 | 0.828 ± 0.03 | 0.785 ± 0.071 | 0.773 ± 0.11 | 0.79 ± 0.13 | 0.729 ± 0.13 | 0.732 ± 0.14 | 0.689 ± 0.14
10 µM, coculture fibroblast: HUF | 0.829 ± 0.011 | 0.737 ± 0.0081 | 0.7038 ± 0.0027 | 0.6437 ± 0.0046 | 0.5934 ± 0.0017 | 0.576 ± 0.0043 | 0.5648 ± 0.0012 | 0.558 ± 0.0073 | 0.557 ± 0.0079
10 µM, coculture fibroblast: Hs5 | 0.761 ± 0.064 | 0.6851 ± 0.0046 | 0.6486 ± 0.006 | 0.581 ± 0.028 | 0.553 ± 0.039 | 0.511 ± 0.041 | 0.519 ± 0.043 | 0.492 ± 0.039 | 0.492 ± 0.045
10 µM, coculture fibroblast: Hs27A | 0.845 ± 0.017 | 0.7969 ± 0.0065 | 0.814 ± 0.03 | 0.813 ± 0.044 | 0.805 ± 0.059 | 0.876 ± 0.073 | 0.802 ± 0.081 | 0.794 ± 0.08 | 0.723 ± 0.071
10 µM, coculture fibroblast: Hs343T | 0.671 ± 0.059 | 0.638 ± 0.049 | 0.633 ± 0.0098 | 0.6 ± 0.019 | 0.606 ± 0.047 | 0.587 ± 0.07 | 0.6 ± 0.056 | 0.599 ± 0.058 | 0.614 ± 0.06
10 µM, coculture fibroblast: WS1 | 0.77851 ± 0.00012 | 0.742 ± 0.013 | 0.718 ± 0.028 | 0.646 ± 0.027 | 0.614 ± 0.023 | 0.583 ± 0.032 | 0.569 ± 0.033 | 0.548 ± 0.034 | 0.537 ± 0.042
100 µM, coculture fibroblast: C12385 | 0.8382 ± 0.0068 | 0.737 ± 0.015 | 0.676 ± 0.017 | 0.576 ± 0.012 | 0.5084 ± 0.0047 | 0.481 ± 0.01 | 0.4599 ± 0.0024 | 0.436 ± 0.0088 | 0.429 ± 0.0074
100 µM, coculture fibroblast: H6013 | 0.889 ± 0.013 | 0.813 ± 0.019 | 0.756 ± 0.019 | 0.7354 ± 0.0049 | 0.7277 ± 0.0015 | 0.7536 ± 0.0063 | 0.738 ± 0.012 | 0.732 ± 0.016 | 0.706 ± 0.014
100 µM, coculture fibroblast: H6019 | 0.8187 ± 0.0073 | 0.745 ± 0.018 | 0.766 ± 0.015 | 0.714 ± 0.012 | 0.714 ± 0.0056 | 0.7266 ± 0.0072 | 0.7184 ± 0.0024 | 0.732 ± 0.0092 | 0.7326 ± 0.00018
100 µM, coculture fibroblast: H6076 | 0.813 ± 0.034 | 0.709 ± 0.029 | 0.605 ± 0.03 | 0.555 ± 0.018 | 0.559 ± 0.013 | 0.544 ± 0.013 | 0.552 ± 0.021 | 0.558 ± 0.024 | 0.561 ± 0.015
100 µM, coculture fibroblast: H6231 | 0.795 ± 0.0084 | 0.7 ± 0.015 | 0.572 ± 0.029 | 0.578 ± 0.02 | 0.545 ± 0.022 | 0.508 ± 0.023 | 0.497 ± 0.01 | 0.458 ± 0.0073 | 0.443 ± 0.0083
100 µM, coculture fibroblast: HADF | 0.8684 ± 0.0083 | 0.802 ± 0.023 | 0.746 ± 0.019 | 0.715 ± 0.03 | 0.704 ± 0.038 | 0.722 ± 0.041 | 0.684 ± 0.043 | 0.68 ± 0.045 | 0.633 ± 0.046
100 µM, coculture fibroblast: HCFa | 0.8497 ± 0.001 | 0.746 ± 0.011 | 0.697 ± 0.027 | 0.664 ± 0.031 | 0.652 ± 0.021 | 0.66 ± 0.013 | 0.616 ± 0.012 | 0.607 ± 0.012 | 0.553 ± 0.0071
100 µM, coculture fibroblast: HCPF | 0.846 ± 0.049 | 0.752 ± 0.051 | 0.671 ± 0.051 | 0.575 ± 0.033 | 0.525 ± 0.022 | 0.484 ± 0.015 | 0.448 ± 0.0095 | 0.4297 ± 0.0041 | 0.4 ± 0.0056
100 µM, coculture fibroblast: HHSteC | 0.881 ± 0.018 | 0.804 ± 0.024 | 0.786 ± 0.035 | 0.748 ± 0.04 | 0.74 ± 0.057 | 0.76 ± 0.063 | 0.711 ± 0.069 | 0.699 ± 0.076 | 0.65 ± 0.062
100 µM, coculture fibroblast: HMF | 0.821 ± 0.021 | 0.729 ± 0.031 | 0.643 ± 0.022 | 0.552 ± 0.024 | 0.53 ± 0.035 | 0.503 ± 0.025 | 0.498 ± 0.018 | 0.487 ± 0.025 | 0.479 ± 0.021
100 µM, coculture fibroblast: HPFa | 0.9348 ± 0.0037 | 0.833 ± 0.022 | 0.7955 ± 0.0018 | 0.7661 ± 0.0057 | 0.7741 ± 0.0072 | 0.8107 ± 0.0041 | 0.7461 ± 0.007 | 0.7364 ± 0.0034 | 0.694 ± 0.014
100 µM, coculture fibroblast: HUF | 0.876 ± 0.011 | 0.749 ± 0.014 | 0.724 ± 0.031 | 0.651 ± 0.02 | 0.599 ± 0.015 | 0.568 ± 0.011 | 0.547 ± 0.017 | 0.53 ± 0.0099 | 0.525 ± 0.014
100 µM, coculture fibroblast: Hs5 | 0.829 ± 0.035 | 0.751 ± 0.028 | 0.657 ± 0.051 | 0.59 ± 0.039 | 0.568 ± 0.042 | 0.522 ± 0.041 | 0.53 ± 0.05 | 0.502 ± 0.049 | 0.48 ± 0.048
100 µM, coculture fibroblast: Hs27A | 0.862 ± 0.046 | 0.801 ± 0.063 | 0.766 ± 0.09 | 0.731 ± 0.13 | 0.721 ± 0.15 | 0.745 ± 0.17 | 0.703 ± 0.15 | 0.691 ± 0.15 | 0.617 ± 0.15
100 µM, coculture fibroblast: Hs343T | 0.844 ± 0.023 | 0.763 ± 0.041 | 0.645 ± 0.013 | 0.592 ± 0.009 | 0.563 ± 0.029 | 0.533 ± 0.034 | 0.518 ± 0.044 | 0.508 ± 0.042 | 0.504 ± 0.041
100 µM, coculture fibroblast: WS1 | 0.822 ± 0.023 | 0.696 ± 0.027 | 0.6247 ± 0.0041 | 0.526 ± 0.008 | 0.48 ± 0.0081 | 0.451 ± 0.015 | 0.428 ± 0.011 | 0.404 ± 0.011 | 0.391 ± 0.017
